These results are taken from patent publication US20240327840.

Test in all cases: pull-down
Data set [1] concerns the target T1, QKI-5 (Quaking isoform 5) (Homo sapiens) (UniProt Q96PU8).
T1 sequence: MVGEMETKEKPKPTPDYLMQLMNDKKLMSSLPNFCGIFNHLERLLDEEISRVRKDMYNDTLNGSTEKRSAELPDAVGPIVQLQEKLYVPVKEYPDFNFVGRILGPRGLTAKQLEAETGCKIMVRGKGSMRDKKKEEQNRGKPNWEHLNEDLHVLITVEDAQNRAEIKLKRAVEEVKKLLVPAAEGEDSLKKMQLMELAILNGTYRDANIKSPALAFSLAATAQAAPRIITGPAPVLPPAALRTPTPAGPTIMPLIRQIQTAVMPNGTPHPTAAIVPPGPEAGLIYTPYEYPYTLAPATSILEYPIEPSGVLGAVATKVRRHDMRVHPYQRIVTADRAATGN
The conditions noted are these: protein in an extract, label: 5'-C6 biotin.

Data set [2] deals with T2, QKI-6 (Quaking isoform 6) (Homo sapiens) (UniProt Q96PU8).
T2 sequence: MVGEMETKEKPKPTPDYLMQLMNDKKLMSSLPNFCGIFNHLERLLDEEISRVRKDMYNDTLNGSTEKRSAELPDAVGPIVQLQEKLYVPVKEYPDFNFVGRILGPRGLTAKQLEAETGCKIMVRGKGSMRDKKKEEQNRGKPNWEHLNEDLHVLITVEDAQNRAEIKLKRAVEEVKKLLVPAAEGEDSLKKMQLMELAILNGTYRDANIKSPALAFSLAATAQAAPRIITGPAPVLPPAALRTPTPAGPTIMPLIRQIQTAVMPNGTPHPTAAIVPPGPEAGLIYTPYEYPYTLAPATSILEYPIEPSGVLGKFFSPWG
The conditions noted are these: 2'-OMe all, protein in an extract, label: 5'-C6 biotin.

Data set [3] deals with T3, QKI-7 (Quaking isoform 7) (Homo sapiens) (UniProt Q96PU8).
T3 sequence: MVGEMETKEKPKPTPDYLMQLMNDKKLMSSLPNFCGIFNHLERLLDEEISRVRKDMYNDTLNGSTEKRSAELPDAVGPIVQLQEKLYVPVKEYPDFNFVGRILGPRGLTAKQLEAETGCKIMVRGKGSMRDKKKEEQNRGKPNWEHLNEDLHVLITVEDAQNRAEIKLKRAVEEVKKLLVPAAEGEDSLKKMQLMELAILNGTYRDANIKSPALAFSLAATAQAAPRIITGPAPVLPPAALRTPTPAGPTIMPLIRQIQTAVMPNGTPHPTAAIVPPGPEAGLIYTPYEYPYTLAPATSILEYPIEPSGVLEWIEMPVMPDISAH
The conditions noted are these: 2'-OMe all, protein in an extract, label: 5'-C6 biotin.

Setting [4] is: somewhat preferential in cytoplasmic fraction.

Results from cells or extracts need not show a direct contact. For part of these data: A negative result means that nothing was seen under these conditions. Tags and fusion partners may be left off the protein sequences shown. The exact form of at least one protein or probe is not confirmed. Weaker means in comparison with the reference protein, sequence or condition of that experiment.

Consider “ACTAACTTTACTAACTTTACTAACTTTACTAAC [(ACUAAC)4 with DNA TTT spacers]”, for which the binding result in data set [1] (2'-OMe in ACUAAC, dT spacers, DNA spacer neither hampers nor improves interaction, variant of (ACUAAC)4) is given as “binds”.

Take “ACTAACTTTACTAACTTTACTAACTTTACTAAC [(ACUAAC)4 with LNA TTT spacers]”: the binding result in data set [1] (2'-OMe in ACUAAC, LNA T spacers, LNA spacer completely blocks binding, variant of (ACUAAC)4) is on record as “no binding”.

Take ACUAACACUAAC [(ACUAAC)2]: the binding result in data set [1] (2'-OMe all, little ability to interact, rank 77>76>75>74) is listed as “binds more weakly”; in data set [2] (little ability to interact), “binds more weakly”; in data set [3] (little ability to interact) it was “binds more weakly”. On to ACUAACACUAACACUAAC [(ACUAAC)3], for which the binding result in data set [1] (2'-OMe all, rank 77>76>75>74) is “binds”. For the sequence “ACUAACACUAACACUAACACUAAC [(ACUAAC)4 with TEG spacer 9]”, the binding result in data set [1] (2'-OMe in ACUAAC, triethylene glycol spacer 9 between ACUAAC motifs, TEG spacer neither hampers nor improves interaction, variant of (ACUAAC)4) is recorded as “binds”. ACUAACACUAACACUAACACUAAC [(ACUAAC)4]: the binding result in data set [1] (2'-OMe all, rank 77>76>75>74) is reported as “binds”. For “ACUAACACUAACACUAACACUAACACUAACACUAAC [(ACUAAC)6]”, in data set [1] (2'-OMe all, strongest of the series 77>76>75>74), the binding result was “binds”. In the case of “ACUAACUUUACUAACUUUACUAACUUUACUAAC [(ACUAAC)4 with RNA UUU spacers]”, the binding result in data set [1] (2'-OMe all, RNA spacer neither hampers nor improves interaction, variant of (ACUAAC)4) is “binds”. As for “GCAAUCCGCAAUCCGCAAUCC [scr scrambled dcRNA]”, the binding result in data set [1] (2'-OMe all, little to no binding) is reported as “no binding”.

Turning to “GCUUUACGAACACAGAUACGAACAUCG [SEQ62 mutated control dcRNA]”, the binding result in data set [1] (2'-OMe all, little to no binding, variant of SEQ63 dual core dcRNA, 5 nt spacer) is recorded as “no binding”. In the case of “GCUUUACUAACACAGAUACUAACAUCG [SEQ63 dual core dcRNA, 5 nt spacer]”, the binding result in data set [1] (2'-OMe all, streptavidin pulldown and western blot, 50 mM KCl, 5 mM MgCl2, 4C, nuclear and cytoplasmic extract) is reported as “binds”; in data set [2] (setting [4]), “binds”; in data set [3] (setting [4]), “binds”.
